Drawing on paper PMC6289996, this text covers binding for 1 substance.

Chains of the proteins cited; added tags and fusions are not shown.
UniProt P17839: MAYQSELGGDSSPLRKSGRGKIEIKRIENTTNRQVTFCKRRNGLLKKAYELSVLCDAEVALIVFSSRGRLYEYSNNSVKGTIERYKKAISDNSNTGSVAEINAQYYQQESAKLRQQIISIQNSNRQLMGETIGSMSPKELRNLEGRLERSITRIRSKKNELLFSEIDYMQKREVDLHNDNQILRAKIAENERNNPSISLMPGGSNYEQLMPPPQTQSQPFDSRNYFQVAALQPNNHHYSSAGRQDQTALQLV

The experiment deals with T1, CRABS CLAW (CRC) (Arabidopsis thaliana (Col)) (UniProt Q8L925).
T1 sequence: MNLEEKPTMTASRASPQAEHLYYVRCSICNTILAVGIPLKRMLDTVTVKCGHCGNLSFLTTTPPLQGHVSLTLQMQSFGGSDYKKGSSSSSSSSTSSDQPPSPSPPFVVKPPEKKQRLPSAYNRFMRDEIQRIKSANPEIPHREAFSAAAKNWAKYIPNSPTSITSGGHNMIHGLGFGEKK
As to the kind of experiment: two-hybrid; bait and prey constructs in pDEST vectors co-transformed into MaV203 yeast; double transformants selected on -Trp-Leu SD media; survival test on -Trp-Leu-His SD media.

These are yes or no findings as the source states them, for the method shown.

As to “AGAMOUS (AG) (from UniProt P17839 1-252)”, the binding result is reported as “no binding”.
